Experimental data published in PubChem BioAssay AID493014 (National Center for Advancing Translational Sciences (NCATS), 2011).
Screen size: about 340,000 compounds; about 170 (0.05%) were called active. The call rests on the fitted dose curve; in most records, active means well fitted inhibition curve with a large enough effect in the signal ratio, with a control signal flat (not every such curve was filed as active); inconclusive means small, poorly fitted or top-dose-only effect, or effect the other way, or a change in a side signal; inactive means flat fitted curve, though single readings scatter; the % refers to the signal ratio. Inconclusive results, whose numbers are uncertain, are shown. Where the call is inconclusive, the potency comes from a doubtful curve fit.

Test: qHTS Assay to Find Inhibitors of Chronic Active B-Cell Receptor Signaling;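 on activity change, negative = inhibition: plate controls were basal doxycycline-induced cells for no effect and cells given 10 µM MG132 for full effect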
Settings: ABC-DLBCL IkBa-CBG/CBR reporter, luminescence ratio (green luciferase fused to IkBa over red control in TMD8 lymphoma cells), 4 h; activity change, negative = inhibition: at 46.1 µM (top of the series)
Description: NIH Molecular Libraries Probe Production Network [MLPCN] NIH Chemical Genomics Center [NCGC] MLPCN Grant: 1 R03 DA031086-01A1 PI Name: Dr. R. Eric Davis NCGC Assay Overview: Diffuse large B-cell lymphoma (DLBCL) is the most common category of non-Hodgkin lymphoma, with ~20,000 new cases per year in the United States. DLBCL should be regarded as a collection of different neoplasms. Microarray gene expression analysis has defined two principal types of DLBCL, named for their similarity to normal B cell stages or activation states: a germinal center B-cell (GCB) type, and an activated B-cell (ABC) type. In ABC-DLBCL, a constitutive high-level activity of the NF-kappaB family of transcription factors has been observed (1) and NF-kappaB target genes are more highly expressed in ABC primary tumors than in GCB tumors. Functional studies have shown a constitutive high-level activity of the IkappaB (inhibitor of kappa-B) kinase (IKK) complex. […] Further analysis of DLBCL primary tumors for NF-kappaB target gene expression imply that although CARD11 is required for constitutive IKK activity in all ABC-DLBCL lines, mutations in CARD11 may be the root cause of IKK activation only in lines or tumors with such mutations. In other words, CARD11 mutations may explain NF-kappaB activation in only 10% of ABC-DLBCL cases. […] This process has been termed 'chronic active BCR signaling' (CABS). […] Following the addition of doxycycline to induce expression of the luciferases, the green luminescence in control cultures rises only slowly because the CBG fusion partner IkappaBalpha is targeted by IKK activity for rapid degradation. In contrast, green luminescence rises rapidly in the presence of proteasome inhibitors or IKK inhibitors. The rise in red luminescence of CBR is not affected by proteasome or IKK inhibitors, and serves as normalization for cell number and nonspecific effects. […]
NCGC Assay Protocol Summary: Cells were seeded in 1536-well plates at 5000 cells/4uL in IMDM medium containing 0.5% FBS, w/o phenol red, 1% penicillin/streptomycin. […] The plates were measured on a ViewLux plate reader for green luminescence (540/20 nm filter) and red luminescence (618/8 nm filter). The green and red luminescent signals were corrected for red and green luminescence filter overlap using previously determined filter calibration constants (determined using the procedure outlined in the Promega Technical Manual; REF 4). The %Activity was determined from the ratio of corrected green/red luminescent values. […] Red luminescent %Activity was normalized to the difference between red luminesence in basal cells (0%Activity) and zero luminescence (-100% Activity). […]
Potency means the concentration at half of the fitted maximal effect.

| Compound | activity change, negative = inhibition | Potency |
| --- | --- | --- |
| COc1cc(/C=C2/C(=N)N3C(=NC2=O)SN=C3S(C)(=O)=O)ccc1OS(=O)(=O)c1ccccc1 | inconclusive: 2.34% | – |
| O=C(O)Cn1cc(/C=c2/sc3nc4ccccc4n3c2=O)c2ccccc21 | – | inconclusive: 12.6 µM [falling, partial curve] |
| COc1cc(/C=C2\C(=N)N3N=C(S(C)(=O)=O)SC3=NC2=O)cc(OC)c1OCCOc1cccc(C)c1 | inconclusive: 9.64% | – |
| O=C(O)COc1ccccc1/C=N/NC(=O)CSc1nnc(SCc2cccc3ccccc23)s1 | inconclusive: -4.91% | – |
